Here are results for 1 substance from PMC3377538.

Amino acid sequences for entries named in this document (tags omitted).
UniProt Q13950: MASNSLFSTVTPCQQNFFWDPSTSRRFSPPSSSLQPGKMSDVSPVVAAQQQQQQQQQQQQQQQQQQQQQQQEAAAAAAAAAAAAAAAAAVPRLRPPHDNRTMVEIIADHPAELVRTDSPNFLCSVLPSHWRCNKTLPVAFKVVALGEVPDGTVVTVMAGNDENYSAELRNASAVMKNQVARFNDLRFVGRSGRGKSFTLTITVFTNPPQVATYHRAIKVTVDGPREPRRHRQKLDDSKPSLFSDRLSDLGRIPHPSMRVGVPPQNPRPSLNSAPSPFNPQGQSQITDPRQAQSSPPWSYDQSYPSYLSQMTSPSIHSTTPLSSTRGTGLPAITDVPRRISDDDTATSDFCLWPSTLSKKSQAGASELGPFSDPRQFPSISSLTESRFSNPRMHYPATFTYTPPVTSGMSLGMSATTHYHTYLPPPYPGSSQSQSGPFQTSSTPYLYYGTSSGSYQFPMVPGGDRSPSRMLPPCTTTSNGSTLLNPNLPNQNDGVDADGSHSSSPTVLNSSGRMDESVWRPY

Results are given in words; binding and its absence hold for the method and conditions named. Binding seen in cells or lysates may run through a third protein. Some results given as binding are weak or reduced against the parent protein; the word gives no strength. Tags and fused reporters may be left off the sequences shown.

This assay concerns the target T1, histone H3K9-specific methyltransferase Suv39h1 (human (endogenous in H1299)) (UniProt O43463).
T1 sequence: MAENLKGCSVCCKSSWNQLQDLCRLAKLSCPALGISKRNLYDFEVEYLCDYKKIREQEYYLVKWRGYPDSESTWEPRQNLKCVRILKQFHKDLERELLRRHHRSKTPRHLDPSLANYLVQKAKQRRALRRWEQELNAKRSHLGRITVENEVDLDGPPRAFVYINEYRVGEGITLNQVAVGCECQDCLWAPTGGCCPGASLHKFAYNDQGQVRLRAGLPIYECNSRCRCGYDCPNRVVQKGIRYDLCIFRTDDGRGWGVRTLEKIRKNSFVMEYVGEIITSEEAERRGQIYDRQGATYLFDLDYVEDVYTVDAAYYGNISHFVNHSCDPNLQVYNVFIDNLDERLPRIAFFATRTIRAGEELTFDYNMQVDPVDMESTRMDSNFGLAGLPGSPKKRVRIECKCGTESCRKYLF
In words: co-IP; H1299 whole cell lysates (50 mM NaCl, 50 mM Tris pH 8.0, 1% NP-40) incubated overnight at 4°C with Runx2 (M-70), Suv39h1 or control IgG antibodies; protein A/G beads; blots with Runx2 and Suv39h1 antibodies.

“Runt-related transcription factor Runx2 (from UniProt Q13950 1-521)”: the binding result is on record as “binds”.
